The values below come from publication PMC8683493.

Assay [1] deals with T1, NmrA^FLAG (Aspergillus nidulans) (UniProt Q5AU62).
T1 sequence: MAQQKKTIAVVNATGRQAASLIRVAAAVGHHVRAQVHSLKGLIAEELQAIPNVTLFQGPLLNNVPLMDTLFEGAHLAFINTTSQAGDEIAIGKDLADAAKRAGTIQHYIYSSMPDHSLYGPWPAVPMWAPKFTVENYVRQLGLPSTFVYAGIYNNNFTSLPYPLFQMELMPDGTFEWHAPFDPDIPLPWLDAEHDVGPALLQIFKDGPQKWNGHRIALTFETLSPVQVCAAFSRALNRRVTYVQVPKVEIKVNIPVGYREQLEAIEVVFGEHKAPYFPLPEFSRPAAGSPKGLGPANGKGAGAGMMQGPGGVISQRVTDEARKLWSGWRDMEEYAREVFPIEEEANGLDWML
In words: co-IP; reciprocal: lysate of A. nidulans mycelia co-expressing NmrA^FLAG and PnmB^HA, precipitated with anti-FLAG or anti-HA antibody and protein A beads, 4 °C; IP buffer 250 mM NaCl, 100 mM Tris-HCl pH 7.5, 10% glycerol, 1 mM EDTA, 0.1% NP-40; with protease inhibitors including benzamidine; western blot. (Immunoblotting shows a protein as a band on a membrane.)

The target of assay [2] is PnmB^HA (Aspergillus nidulans). Described as above.

Results are given in words; binding and its absence hold for the method and conditions named. In cells and extracts the contact can be indirect. Binding calls can cover weak binding; strength is not graded here. Tags and fused reporters may be left off the sequences shown.

With PnmB^HA (Aspergillus nidulans) (enzyme), the binding entry in assay [1] is reported as “binds”.

B1: NmrA^FLAG (protein, UniProt Q5AU62 1-352)
chain: T1 sequence
With B1, the binding result in assay [2] is reported as “binds”.
